Measurements reported in publication PMC12624017.

By UniProt entry, the sequences of proteins in these tests, tags left out.
UniProt Q8IWE2: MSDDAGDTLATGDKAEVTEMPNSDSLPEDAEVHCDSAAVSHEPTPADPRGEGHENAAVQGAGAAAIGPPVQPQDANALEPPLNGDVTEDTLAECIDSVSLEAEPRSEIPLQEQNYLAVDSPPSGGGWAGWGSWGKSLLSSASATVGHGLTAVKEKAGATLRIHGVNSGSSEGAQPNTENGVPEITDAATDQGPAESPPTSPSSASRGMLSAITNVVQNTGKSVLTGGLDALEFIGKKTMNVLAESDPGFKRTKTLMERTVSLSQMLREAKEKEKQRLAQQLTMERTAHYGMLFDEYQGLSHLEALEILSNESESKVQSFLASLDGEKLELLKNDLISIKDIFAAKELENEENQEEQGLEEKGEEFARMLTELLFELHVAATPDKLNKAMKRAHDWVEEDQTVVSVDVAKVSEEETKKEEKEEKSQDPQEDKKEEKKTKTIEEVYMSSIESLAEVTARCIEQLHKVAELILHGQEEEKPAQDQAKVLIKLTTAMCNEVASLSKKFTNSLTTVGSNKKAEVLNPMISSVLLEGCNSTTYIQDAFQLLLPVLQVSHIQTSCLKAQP
UniProt Q16254: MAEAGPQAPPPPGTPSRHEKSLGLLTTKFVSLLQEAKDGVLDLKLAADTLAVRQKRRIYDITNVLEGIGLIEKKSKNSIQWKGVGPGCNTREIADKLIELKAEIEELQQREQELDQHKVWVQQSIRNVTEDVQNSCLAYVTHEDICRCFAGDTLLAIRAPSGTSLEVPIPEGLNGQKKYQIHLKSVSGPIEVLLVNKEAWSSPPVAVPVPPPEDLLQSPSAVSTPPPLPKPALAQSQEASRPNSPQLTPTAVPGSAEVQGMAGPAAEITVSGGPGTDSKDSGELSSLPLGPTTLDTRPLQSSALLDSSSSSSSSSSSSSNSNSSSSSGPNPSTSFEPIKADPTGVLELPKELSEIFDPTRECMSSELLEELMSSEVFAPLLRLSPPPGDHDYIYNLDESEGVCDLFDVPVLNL
UniProt P27986: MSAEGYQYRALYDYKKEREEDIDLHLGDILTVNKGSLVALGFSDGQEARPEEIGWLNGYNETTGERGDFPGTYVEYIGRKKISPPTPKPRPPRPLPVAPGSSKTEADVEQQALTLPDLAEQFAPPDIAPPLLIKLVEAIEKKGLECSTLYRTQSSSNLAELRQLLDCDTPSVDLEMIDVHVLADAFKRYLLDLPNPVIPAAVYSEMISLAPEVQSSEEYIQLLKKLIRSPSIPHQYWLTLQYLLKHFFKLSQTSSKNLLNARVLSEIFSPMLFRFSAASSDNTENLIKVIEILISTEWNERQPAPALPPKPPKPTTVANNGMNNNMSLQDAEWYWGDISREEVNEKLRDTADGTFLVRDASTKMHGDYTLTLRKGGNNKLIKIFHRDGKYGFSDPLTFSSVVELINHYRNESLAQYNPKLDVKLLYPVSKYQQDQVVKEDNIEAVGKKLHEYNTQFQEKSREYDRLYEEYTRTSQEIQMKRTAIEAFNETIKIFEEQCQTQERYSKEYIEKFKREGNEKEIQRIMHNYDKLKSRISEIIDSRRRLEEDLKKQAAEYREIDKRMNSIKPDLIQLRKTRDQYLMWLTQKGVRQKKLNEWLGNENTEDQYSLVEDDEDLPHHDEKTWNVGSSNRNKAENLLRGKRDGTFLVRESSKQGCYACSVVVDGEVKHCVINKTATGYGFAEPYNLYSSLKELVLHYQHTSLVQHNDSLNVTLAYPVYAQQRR

Molecular target: FAM114A1, bait of the co-IP followed by mass spectrometry (UniProt Q8IWE2)
Test: affinity purification with mass spectrometry; co-IP of FAM114A1; samples separated by SDS-PAGE, Coomassie stained, in-gel digestion, nano-HPLC-MS/MS; spectra searched against a human protein database; cells not told

binding | Substance
binds | E2F4, found in the FAM114A1 co-IP by mass spectrometry (from UniProt Q16254 1-413)
binds | p85α, found in the FAM114A1 co-IP by mass spectrometry (from UniProt P27986 1-724)

These are yes or no findings as the source states them, for the method shown. In cells and extracts the contact can be indirect. These calls come from enrichment with a bait or labelling near it, and not all partners need be listed.
